Measured values reported in paper doi:10.1101/112144.
No constants are given. Whether binding was seen depends on the method and setting. In cells and extracts the contact can be indirect.

Protein sequences, listed by entry. Tags and fused reporters are not part of them.
UniProt O09106: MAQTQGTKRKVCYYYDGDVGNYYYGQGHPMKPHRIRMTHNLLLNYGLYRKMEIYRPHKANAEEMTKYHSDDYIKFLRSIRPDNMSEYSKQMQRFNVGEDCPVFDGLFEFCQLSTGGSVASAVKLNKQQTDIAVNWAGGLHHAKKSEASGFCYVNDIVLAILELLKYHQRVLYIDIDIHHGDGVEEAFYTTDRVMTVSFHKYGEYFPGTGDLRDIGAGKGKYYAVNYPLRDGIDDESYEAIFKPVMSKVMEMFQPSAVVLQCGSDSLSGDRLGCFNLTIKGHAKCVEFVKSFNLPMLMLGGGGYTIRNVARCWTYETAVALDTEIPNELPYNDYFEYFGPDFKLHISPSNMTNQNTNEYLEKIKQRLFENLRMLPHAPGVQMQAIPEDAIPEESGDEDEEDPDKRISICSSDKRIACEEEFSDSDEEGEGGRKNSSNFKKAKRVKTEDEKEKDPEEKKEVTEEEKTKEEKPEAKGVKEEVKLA

Target: T1, Tbx1:3xHA (mouse) (UniProt P70323)
T1 sequence: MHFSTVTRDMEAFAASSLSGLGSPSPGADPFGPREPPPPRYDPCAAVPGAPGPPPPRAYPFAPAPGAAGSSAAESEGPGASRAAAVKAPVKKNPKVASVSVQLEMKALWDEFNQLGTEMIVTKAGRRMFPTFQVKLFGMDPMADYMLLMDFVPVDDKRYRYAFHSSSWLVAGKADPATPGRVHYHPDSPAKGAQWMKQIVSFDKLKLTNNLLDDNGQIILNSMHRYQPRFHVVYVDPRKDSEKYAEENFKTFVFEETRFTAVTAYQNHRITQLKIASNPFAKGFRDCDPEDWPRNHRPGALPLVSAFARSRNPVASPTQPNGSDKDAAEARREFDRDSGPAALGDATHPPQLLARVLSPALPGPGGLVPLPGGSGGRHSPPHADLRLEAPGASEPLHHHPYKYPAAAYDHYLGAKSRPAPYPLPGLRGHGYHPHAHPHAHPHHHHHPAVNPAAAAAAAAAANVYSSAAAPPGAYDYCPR
Test: co-IP

With HDAC1 (from UniProt O09106 1-482) the binding was “no binding”.
